In this assay the test system is Fonsecaea pedrosoi (CFP 00791). Put plainly: NIH Clinical Collection screening for antifungal activity (growth inhibition, OD 530 nm). It is filed as cell-based. Particulars: CFP00791 Fonsecaea pedrosoi isolate, 72–96 h. As for the experimental part: These substances are part of the NIH Roadmap Molecular Libraries Screening Centers Network screening library, a collection of chemically diverse substances in Phase I-III clinical trials. Each substance was initially diluted to 1 mM in DMSO and stored at −20 °C until use. […] The final DMSO concentration corresponded to 0.5% v/v. The inoculum was prepared according to the protocol for filamentous fungi proposed by the European Committee on Antimicrobial Susceptibility Testing—EUCAST, with minor modifications. […] After growth, conidia were suspended in 3 mL of sterile distilled water with 0.1% Tween 20, vortexed, and the concentration adjusted to the 0.5 McFarland scale. The suspension was then diluted 1:10 in order to obtain a final working inoculum at 2–5 × 10^5 CFU/mL. Next, 100 µL of the inoculum was added to each well and the plates incubated at 35 °C for 72–96 h. Negative and positive controls consisted of culture medium alone and drug-free culture medium with the fungal inoculum previously described, respectively. Plates were read using a microplate reader (Epoch, Biotek, Wenusky, VT, USA) with a 530 nm filter to obtain the optical density. All plates were also visually read to confirm the equipment data. […]

Among the data in PMC10381309, “Repurposing Benzimidazoles against Causative Agents of Chromoblastomycosis: Albendazole Has Superior In Vitro Activity Than Mebendazole and Thiabendazole” (Journal of Fungi, 2023) are inhibition values, retold here.

Broadly, the inhibition is how much of the control response was suppressed. Lower therefore signals a response near the control.

`Clc1ccc(CO/N=C(\Cn2ccnc2)c2ccc(Cl)cc2Cl)c(Cl)c1` [Oxiconazole (nitrate), Oxiconazole] showed an inhibition at 10 µM of 91%.
